What was measured:
Format in all cases: in vivo
[1] = Bitterness evaluation of grapefruit juice (flavor comparison by 10 panelists)
Protocol: 3-n-Butylphthalide was added as a bitterness-improving agent (masking agent for bitterness) of the present invention to commercially available grapefruit juice at the concentrations shown in the following Table 2 to obtain grapefruit juice.

[2] = Bitterness evaluation of carbonated water (flavor comparison by 10 panelists)
Protocol: Sedanenolide was added as a bitterness-improving agent (masking agent for bitterness) of the present invention to sufficiently deaerated pure water at the concentrations shown in the following Table 4, and then carbon dioxide gas was sealed in each bottle at a pressure of 294 KPa to obtain carbonated water of the present invention.

[3] = Astringency evaluation of green tea drink (flavor comparison by 10 panelists)
Protocol: Five thousand grams of hot water (containing 0.03% of sodium ascorbate) of 95° C. was added to 100 g of domestic green tea (second picking tea), followed by extraction for 5 min while sometimes stirring. Subsequently, solid-liquid separation with flannel filter was performed to obtain 4500 g of an extract (Bx 0.7°). This extract was adjusted to Bx 0.5° with deionized water to obtain green tea extract having strong astringency. Sedanenolide was added as a taste-improving agent (masking agent for astringency) of the present invention to the resulting extract at the concentrations shown in the following Table 4 to obtain green tea drinks.

[4] = Bitterness evaluation of green tea drink (flavor comparison by 10 panelists)
Protocol: Five thousand grams of hot water (containing 0.03% of sodium ascorbate) of 60° C. was added to 100 g of Chinese green tea (second picking tea) produced by Josei (heat treatment by steaming), followed by extraction for 5 min while sometimes stirring. Subsequently, solid-liquid separation with flannel filter was performed to obtain 4500 g of an extract (Bx 0.6°). To the extract, 0.04 g of tannase (Kikkoman Corporation: 5000 U/g) was added. The resulting mixture was left to stand at 40° C. for 1 hour to decompose the gallate-type catechin to non-gallate-type catechin (gallate-type catechin has strong astringency, and non-gallate-type catechin has strong bitterness), followed by heating at 90° C. for 1 min to inactivate the enzyme. After cooling to 20° C., the extract was adjusted to Bx 0.5° with deionized water to obtain green tea extract having strong bitterness. Sedanolide was added as a taste-improving agent (masking agent for bitterness) of the present invention to the resulting extract at the concentrations shown in the following Table 3 to obtain green tea drinks.

Q: Which Note ([1]; 3-n-butylphthalide 10 ppm in grapefruit juice, 10 panelists) does the source give for `CCCCC1OC(=O)c2ccccc21` (centres unmarked) [3-n-butylphthalide] here?
A: Its Note is “slight spicy aroma”.

Q: What about the aroma sensed ([1]; 3-n-butylphthalide 10 ppm, grapefruit juice) of the same compound?
A: The aroma sensed was “a slight spicy aroma other than bitterness was also sensed”.

Q: For `CCCC[C@@H]1OC(=O)C2=C1CCC=C2` [sedanenolide], which Note ([2]; sedanenolide 10 ppm in carbonated water, 10 panelists) is on record?
A: The Note was “slight spicy aroma”.

Q: And the aroma sensed ([2]; sedanenolide 10 ppm, carbonated water)?
A: The aroma sensed was “a slight spicy aroma other than bitterness was also sensed”.

Q: What about the Note ([3]; sedanenolide 10 ppm in green tea drink having strong astringency, 10 panelists) of the same compound?
A: Its Note is “slight spicy aroma”.

Q: What about the aroma sensed ([3]; sedanenolide 10 ppm, green tea drink) of the same compound?
A: The aroma sensed was “a slight spicy aroma other than bitterness was also sensed”.

Q: What does the source list for `CCCCC1OC(=O)C2=CCCCC21` (centres unmarked) [sedanolide]?
A: Note ([4]; sedanolide 10 ppm in green tea drink having strong bitterness, 10 panelists): slight spicy aroma; aroma sensed ([4]; sedanolide 10 ppm, green tea drink): a slight spicy aroma other than bitterness was also sensed

From US20120231141A1, “BITTERNESS-IMPROVING AGENT FOR BITTER FOOD AND DRINK AND ASTRINGENCY-IMPROVING AGENT FOR ASTRINGENT FOOD AND DRINK” (priority 2009, published 2012)
